In the supplement of paper PMC11732987, “Enantioselective OTUD7B fragment discovery through chemoproteomics screening and high-throughput optimisation” (Communications Chemistry, 2025):
The list shows a part of the results. The data scatter; read single values as rough.

Protein sequences, listed by entry. Tags and fused reporters are not part of them. Lines headed by an entry give the natural chain unless they say otherwise; changes in a name come on top. Residues count along the entry.
UniProt O14745: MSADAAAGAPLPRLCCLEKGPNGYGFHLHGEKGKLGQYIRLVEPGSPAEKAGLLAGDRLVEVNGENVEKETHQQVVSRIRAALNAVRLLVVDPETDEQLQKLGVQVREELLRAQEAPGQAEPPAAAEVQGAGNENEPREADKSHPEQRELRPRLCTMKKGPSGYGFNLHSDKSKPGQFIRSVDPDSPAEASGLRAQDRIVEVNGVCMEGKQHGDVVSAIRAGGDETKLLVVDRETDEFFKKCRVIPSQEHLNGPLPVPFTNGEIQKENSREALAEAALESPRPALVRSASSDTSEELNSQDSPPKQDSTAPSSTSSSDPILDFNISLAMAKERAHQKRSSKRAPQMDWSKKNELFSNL
UniProt Q7KZF4: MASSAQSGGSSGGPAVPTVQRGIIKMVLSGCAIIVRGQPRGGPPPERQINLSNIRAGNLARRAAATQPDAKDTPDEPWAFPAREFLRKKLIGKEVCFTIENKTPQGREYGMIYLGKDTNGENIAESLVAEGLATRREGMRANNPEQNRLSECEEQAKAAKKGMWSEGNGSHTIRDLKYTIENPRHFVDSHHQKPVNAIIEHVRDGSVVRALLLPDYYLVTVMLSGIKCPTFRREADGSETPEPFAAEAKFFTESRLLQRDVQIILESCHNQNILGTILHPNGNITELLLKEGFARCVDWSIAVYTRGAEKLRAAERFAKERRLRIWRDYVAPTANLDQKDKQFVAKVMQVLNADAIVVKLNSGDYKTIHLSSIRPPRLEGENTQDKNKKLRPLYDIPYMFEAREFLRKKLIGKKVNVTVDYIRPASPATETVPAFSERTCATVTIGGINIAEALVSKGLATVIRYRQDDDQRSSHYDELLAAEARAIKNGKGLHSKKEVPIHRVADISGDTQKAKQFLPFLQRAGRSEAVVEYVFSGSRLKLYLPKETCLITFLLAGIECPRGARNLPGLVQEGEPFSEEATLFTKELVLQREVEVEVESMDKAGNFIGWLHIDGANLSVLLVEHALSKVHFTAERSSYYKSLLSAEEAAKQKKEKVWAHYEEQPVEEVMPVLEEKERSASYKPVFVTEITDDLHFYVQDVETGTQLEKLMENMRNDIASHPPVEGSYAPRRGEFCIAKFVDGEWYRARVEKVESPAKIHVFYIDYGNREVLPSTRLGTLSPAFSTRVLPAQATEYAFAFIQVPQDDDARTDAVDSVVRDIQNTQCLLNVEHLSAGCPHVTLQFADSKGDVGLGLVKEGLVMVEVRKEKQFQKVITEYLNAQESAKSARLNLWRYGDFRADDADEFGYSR
UniProt Q9ULF5: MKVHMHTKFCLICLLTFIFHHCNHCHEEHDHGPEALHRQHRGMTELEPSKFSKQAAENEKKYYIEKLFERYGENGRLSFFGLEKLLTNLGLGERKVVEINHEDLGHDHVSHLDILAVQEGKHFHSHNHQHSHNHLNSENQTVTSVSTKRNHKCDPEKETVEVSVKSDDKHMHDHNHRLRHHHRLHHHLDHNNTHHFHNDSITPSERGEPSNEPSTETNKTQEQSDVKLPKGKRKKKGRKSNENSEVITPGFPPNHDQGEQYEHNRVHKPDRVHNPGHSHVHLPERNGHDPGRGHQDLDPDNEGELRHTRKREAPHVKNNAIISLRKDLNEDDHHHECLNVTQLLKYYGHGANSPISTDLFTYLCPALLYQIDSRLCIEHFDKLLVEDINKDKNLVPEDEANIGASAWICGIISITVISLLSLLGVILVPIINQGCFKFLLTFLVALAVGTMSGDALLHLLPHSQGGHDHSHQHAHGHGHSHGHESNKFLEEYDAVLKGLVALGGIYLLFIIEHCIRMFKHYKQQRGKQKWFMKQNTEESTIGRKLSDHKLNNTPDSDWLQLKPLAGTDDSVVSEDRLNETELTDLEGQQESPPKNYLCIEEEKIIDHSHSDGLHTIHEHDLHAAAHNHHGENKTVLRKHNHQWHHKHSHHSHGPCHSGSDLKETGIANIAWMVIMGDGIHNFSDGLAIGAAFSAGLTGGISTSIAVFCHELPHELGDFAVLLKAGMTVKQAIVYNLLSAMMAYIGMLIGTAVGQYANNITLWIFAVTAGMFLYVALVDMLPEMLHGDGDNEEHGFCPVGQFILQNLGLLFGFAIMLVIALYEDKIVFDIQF
UniProt P18583: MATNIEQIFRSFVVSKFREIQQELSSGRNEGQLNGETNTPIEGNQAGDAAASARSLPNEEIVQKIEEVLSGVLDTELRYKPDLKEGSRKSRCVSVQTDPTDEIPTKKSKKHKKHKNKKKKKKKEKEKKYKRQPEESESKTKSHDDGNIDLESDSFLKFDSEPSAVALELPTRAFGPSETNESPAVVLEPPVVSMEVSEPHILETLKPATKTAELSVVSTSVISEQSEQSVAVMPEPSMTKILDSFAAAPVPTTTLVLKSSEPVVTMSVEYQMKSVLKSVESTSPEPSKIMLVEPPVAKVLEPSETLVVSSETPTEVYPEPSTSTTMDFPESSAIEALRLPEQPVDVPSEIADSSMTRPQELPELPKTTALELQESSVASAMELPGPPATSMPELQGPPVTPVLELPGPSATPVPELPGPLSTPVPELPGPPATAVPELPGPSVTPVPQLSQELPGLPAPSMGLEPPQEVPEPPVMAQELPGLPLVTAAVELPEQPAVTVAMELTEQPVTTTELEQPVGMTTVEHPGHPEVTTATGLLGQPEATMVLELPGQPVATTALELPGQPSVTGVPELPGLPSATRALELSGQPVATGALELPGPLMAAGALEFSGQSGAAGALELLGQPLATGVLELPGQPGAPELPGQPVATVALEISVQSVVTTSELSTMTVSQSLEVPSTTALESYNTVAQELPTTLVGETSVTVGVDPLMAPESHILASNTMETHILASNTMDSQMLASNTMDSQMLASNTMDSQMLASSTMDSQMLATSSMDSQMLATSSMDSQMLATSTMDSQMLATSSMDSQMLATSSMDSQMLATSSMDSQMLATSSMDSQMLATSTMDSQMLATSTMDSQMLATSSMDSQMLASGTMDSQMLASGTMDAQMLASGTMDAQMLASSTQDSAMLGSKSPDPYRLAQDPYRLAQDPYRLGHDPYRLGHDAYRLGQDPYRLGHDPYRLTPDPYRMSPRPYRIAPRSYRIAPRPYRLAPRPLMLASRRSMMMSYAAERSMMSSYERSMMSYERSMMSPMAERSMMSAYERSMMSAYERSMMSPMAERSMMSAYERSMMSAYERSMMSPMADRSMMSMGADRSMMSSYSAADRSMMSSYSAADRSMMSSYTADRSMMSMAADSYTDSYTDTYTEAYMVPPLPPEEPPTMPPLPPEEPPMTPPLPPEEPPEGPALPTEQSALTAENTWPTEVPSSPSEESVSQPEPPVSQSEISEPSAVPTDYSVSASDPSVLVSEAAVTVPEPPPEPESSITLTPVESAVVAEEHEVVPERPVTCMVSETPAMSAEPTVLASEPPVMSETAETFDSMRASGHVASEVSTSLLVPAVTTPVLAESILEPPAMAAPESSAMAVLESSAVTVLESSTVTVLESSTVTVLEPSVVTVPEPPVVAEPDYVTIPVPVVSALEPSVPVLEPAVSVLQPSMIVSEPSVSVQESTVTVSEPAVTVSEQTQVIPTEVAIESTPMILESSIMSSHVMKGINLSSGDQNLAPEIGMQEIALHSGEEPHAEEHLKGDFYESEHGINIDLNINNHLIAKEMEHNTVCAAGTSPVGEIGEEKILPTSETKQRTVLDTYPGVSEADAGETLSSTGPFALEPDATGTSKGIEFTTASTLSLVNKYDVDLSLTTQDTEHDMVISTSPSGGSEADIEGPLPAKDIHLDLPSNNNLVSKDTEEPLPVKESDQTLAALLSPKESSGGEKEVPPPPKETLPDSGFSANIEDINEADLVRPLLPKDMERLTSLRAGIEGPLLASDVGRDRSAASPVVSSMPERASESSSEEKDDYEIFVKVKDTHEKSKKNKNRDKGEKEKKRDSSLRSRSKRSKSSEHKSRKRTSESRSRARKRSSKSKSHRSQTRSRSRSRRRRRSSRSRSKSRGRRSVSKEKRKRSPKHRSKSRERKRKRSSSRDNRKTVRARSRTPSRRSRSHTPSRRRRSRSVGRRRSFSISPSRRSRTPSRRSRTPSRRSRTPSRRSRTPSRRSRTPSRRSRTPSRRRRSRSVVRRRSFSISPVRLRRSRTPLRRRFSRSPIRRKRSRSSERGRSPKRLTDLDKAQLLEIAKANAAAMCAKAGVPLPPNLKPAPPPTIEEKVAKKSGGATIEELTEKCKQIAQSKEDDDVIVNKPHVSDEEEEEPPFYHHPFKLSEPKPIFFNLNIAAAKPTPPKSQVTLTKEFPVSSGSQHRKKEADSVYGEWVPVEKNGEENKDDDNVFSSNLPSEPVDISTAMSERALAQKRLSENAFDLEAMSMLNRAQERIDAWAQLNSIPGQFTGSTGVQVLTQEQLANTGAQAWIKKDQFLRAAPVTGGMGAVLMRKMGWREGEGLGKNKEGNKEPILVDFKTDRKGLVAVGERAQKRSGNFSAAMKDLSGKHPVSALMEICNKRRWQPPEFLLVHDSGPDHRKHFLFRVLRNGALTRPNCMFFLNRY
UniProt Q96CW6: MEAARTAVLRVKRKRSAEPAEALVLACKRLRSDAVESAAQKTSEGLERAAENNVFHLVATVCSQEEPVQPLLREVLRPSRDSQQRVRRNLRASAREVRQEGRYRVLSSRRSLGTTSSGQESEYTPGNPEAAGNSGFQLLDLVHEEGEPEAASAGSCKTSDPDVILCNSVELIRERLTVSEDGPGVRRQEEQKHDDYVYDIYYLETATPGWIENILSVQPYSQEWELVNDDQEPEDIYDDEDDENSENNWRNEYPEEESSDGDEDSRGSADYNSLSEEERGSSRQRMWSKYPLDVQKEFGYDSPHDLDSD
UniProt Q6P1M0: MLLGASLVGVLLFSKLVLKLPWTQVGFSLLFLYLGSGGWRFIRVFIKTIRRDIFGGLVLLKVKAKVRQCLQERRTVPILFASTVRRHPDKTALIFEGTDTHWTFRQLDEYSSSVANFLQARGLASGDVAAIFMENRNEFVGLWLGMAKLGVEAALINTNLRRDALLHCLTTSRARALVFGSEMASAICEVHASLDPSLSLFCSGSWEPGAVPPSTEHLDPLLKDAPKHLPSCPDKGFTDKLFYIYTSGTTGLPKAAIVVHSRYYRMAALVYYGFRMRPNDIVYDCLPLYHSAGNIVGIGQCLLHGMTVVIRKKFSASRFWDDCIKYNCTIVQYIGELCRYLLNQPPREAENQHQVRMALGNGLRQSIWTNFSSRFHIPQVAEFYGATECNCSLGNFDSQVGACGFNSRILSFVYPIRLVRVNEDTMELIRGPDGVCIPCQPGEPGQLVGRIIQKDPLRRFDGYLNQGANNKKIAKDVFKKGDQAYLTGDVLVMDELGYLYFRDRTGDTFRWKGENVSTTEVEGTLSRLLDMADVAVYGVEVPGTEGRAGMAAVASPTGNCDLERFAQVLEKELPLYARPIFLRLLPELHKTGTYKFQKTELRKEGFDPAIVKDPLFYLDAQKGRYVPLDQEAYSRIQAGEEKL
UniProt Q96R06, 1088-1112: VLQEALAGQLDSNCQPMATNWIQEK
UniProt Q8IYR2: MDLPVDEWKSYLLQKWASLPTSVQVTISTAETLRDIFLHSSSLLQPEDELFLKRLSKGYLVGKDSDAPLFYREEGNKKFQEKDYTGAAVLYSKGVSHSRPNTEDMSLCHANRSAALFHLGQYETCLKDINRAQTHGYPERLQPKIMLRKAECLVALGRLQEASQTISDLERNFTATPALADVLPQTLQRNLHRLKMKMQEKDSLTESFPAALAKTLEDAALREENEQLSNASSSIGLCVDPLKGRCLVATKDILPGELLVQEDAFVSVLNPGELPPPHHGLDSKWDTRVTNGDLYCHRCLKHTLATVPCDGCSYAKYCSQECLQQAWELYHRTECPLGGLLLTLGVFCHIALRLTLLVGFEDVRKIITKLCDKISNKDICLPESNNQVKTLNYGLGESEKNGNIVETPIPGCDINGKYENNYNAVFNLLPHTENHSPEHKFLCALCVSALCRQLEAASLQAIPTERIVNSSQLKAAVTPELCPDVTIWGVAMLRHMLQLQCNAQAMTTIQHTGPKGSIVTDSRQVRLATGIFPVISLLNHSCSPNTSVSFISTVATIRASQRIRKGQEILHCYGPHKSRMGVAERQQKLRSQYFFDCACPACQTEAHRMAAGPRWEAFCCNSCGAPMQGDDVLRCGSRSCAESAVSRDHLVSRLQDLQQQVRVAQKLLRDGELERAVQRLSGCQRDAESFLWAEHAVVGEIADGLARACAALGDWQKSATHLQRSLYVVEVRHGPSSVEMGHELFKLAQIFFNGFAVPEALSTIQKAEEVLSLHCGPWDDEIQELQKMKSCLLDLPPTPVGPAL
UniProt P19634, 794-813: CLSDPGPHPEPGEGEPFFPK

compound: ClCC(=O)N[C@@H]1CCCc2ccccc12; assay: log2 mean competition ratio of IA-DTB cysteine labelling (DMSO/compound) (log2 ratio); higher = stronger cysteine engagement by compound; details: 50 µM; treatment time: 4 h; cell line lysate: HEK293T
Procedure: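 IA-DTB competitive cysteine chemoproteomics in HEK293T RIPA lysate. Lysates were treated with compound 29 or 30 at 50 or 200 µM for 4 h, then IA-DTB (500 µM, 1 h), trypsin-digested, NeutrAvidin-enriched and analysed by diaPASEF. Competition ratio = intensity DMSO / intensity compound (n=4 treated, n=64 DMSO); binding: mean log2 CR ≥ 1 and p ≤ 0.05 plus QC filters. Target is the cysteine site.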

| Target | log2 mean competition ratio |
| --- | --- |
| SMARCC1 C520 (UniProt Q92922) | -0.142 |
| SOS1 C167 (UniProt Q07889) | -0.111 |
| SLC9A3R1 C206 (UniProt O14745) | -0.153 |
| SNX29 C121 (UniProt Q8TEQ0) | 0.122 |
| SND1 C152 (UniProt Q7KZF4) | 0.0195 |
| SLCO2A1 C143 | -0.51 |
| SLC39A10 C598 (UniProt Q9ULF5) | -0.105 |
| SLC6A11 C28 | -0.163 |
| SON C2070 (UniProt P18583) | 0.472 |
| SLC7A6OS C166 (UniProt Q96CW6) | -0.152 |
| SLC27A4 C560 (UniProt Q6P1M0) | 0.115 |
| SLC25A52;SLC25A51 C166;(C166) | -0.173 |
| SMPD4 C579 (UniProt Q9NXE4) | 0.058 |
| SMARCAL1 C508 (UniProt Q9NZC9) | -0.0376 |
| SLC19A1 C246 (UniProt P41440) | 0.149 |
| SPAG5 C1101 (UniProt Q96R06) | 0.108 |
| SMC4 C110 | 0.0112 |
| SMYD4 C296 (UniProt Q8IYR2) | -0.0681 |
| SLC9A1 C794 (UniProt P19634) | -0.136 |
| SMCHD1 C444 (UniProt A6NHR9) | -0.209 |

same assay, conditions: 200 µM; treatment time: 4 h; cell line lysate: HEK293T

| Target | log2 mean competition ratio |
| --- | --- |
| SMARCC1 C520 (UniProt Q92922) | -0.0507 |
| SOS1 C167 (UniProt Q07889) | 0.127 |
| SLC9A3R1 C206 (UniProt O14745) | -0.017 |
| SNX29 C121 (UniProt Q8TEQ0) | 0.155 |
| SND1 C152 (UniProt Q7KZF4) | -0.0957 |
| SLCO2A1 C143 | 0.164 |
| SLC39A10 C598 (UniProt Q9ULF5) | -0.359 |
| SLC6A11 C28 | 0.143 |
| SON C2070 (UniProt P18583) | 0.0349 |
| SLC7A6OS C166 (UniProt Q96CW6) | 0.152 |
| SLC27A4 C560 (UniProt Q6P1M0) | -0.0125 |
| SLC25A52;SLC25A51 C166;(C166) | 0.192 |
| SMPD4 C579 (UniProt Q9NXE4) | 0.196 |
| SMARCAL1 C508 (UniProt Q9NZC9) | -0.533 |
| SLC19A1 C246 (UniProt P41440) | 0.199 |
| SPAG5 C1101 (UniProt Q96R06) | 0.28 |
| SMC4 C110 | -0.086 |
| SMYD4 C296 (UniProt Q8IYR2) | 0.336 |
| SLC9A1 C794 (UniProt P19634) | 0.154 |
| SMCHD1 C444 (UniProt A6NHR9) | -0.204 |
